Experiment [1] deals with T1, IL-37:IL-36R binary complex (human) (UniProt Q9NZH6+Q9HB29).
T1 sequence (chain, N-glycosylated) 1: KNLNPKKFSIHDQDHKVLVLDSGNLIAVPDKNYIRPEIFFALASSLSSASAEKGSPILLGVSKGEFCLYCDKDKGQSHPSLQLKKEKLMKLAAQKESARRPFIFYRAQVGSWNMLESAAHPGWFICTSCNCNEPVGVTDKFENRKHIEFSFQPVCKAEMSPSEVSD
T1 sequence (chain, N-glycosylated) 2: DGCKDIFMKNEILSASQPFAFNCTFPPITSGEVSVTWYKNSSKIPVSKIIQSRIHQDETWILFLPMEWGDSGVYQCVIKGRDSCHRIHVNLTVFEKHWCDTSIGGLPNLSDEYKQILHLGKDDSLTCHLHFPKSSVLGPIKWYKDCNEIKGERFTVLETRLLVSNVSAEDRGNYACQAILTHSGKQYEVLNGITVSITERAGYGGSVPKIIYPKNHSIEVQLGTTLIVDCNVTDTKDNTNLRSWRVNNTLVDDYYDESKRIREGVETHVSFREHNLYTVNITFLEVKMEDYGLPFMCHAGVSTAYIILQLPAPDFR
Nature of the experiment: ITC. In general terms: ITC needs no label: the signal is the heat of the interaction.

Protein sequences, listed by entry. Tags and fused reporters are not part of them. Residues count along the entry.
UniProt Q9NPH3, residues 21-367: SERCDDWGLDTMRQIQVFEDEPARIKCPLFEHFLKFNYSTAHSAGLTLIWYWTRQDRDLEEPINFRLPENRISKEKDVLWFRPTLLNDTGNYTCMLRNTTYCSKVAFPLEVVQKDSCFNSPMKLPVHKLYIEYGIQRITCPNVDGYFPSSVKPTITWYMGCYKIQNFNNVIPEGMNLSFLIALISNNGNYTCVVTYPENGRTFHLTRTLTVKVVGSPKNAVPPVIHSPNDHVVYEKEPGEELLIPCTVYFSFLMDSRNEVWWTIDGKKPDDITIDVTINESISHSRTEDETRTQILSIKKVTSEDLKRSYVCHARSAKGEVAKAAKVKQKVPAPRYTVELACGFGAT

Experiment [2] concerns the target IL-36γ R121A (human) (UniProt Q9NZH8). Kind of experiment: SEC-MALS. (In general: SEC sorts molecules by how far they enter the pores of the column.)

No constants are given. Whether binding was seen depends on the method and setting. Some entries that bind do so weakly or less than the wild type.

Our source for the binding values is publication doi:10.1101/2025.02.22.639629 (bioRxiv, 2025).

Take “IL-1RAcP extracellular domain (residues 1-367) (from UniProt Q9NPH3 21-367) (receptor)”: in experiment [1], the binding entry is “no binding (tested: 427 µM)”.

B1: IL-36γ R121A (ligand, UniProt Q9NZH8 18-169)
chain: SMCKPITGTINDLNQQVWTLQGQNLVAVPRSDSVTPVTVAVITCKYPEALEQGRGDPIYLGIQNPEMCLYCEKVGEQPTLQLKEQKIMDLYGQPEPVKPFLFYAAKTGRTSTLESVAFPDWFIASSKRDQPIILTSELGKSYNTAFELNIND
Turning to B1, the binding entry in experiment [2] is reported as “binds weakly”.
